Values quoted from earlier work as cited in patent US9579330B2, “Use and application regimen of a pharmaceutical composition containing levonorgestrel and a COX inhibitor for on-demand contraception” (priority 2012, dated 2017).
At least one structure is not confirmed: it was looked up by name or label, or the drawing left a doubt.

Conditions: 0.75 mg levonorgestrel, Contraception on Demand; 95% confidence interval 5.0, 47.0; cited from earlier work

C#C[C@]1(O)CC[C@H]2[C@@H]3CCC4=CC(=O)CC[C@@H]4[C@H]3CC[C@@]21CC [LNG, levonorgestrel]
pearl index: 18.3
